Values from PubChem BioAssay AID1259293 (Sanger Institute, 2017).
The whole screen tested 160 reagents; shown is a random part of them. Over the whole deposit, 46 (29%) got an active call. 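The method behind the synergy score is not described; each call refers to one siRNA in a single cell line.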 Unmarked entries are inactive. The numbers tell different reagents against one gene apart. No viability above 1 is reported: the scale is capped. The record does not give: the amount of reagent, the time to read-out.

- Aim: 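Kinase knock-downs that boost cell killing by PI3K, EGFR or MEK drugs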 (follow-up of hits)
- System: human NCI-H716 colorectal cancer cells
- Knock-down reagent: single siRNA against human genes
- Treatment: anchor drugs BYL719 at 1 µM, cetuximab at 5 µg/ml or trametinib at 10 nM, or DMSO vehicle alone
- Measurement: 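Replicate-averaged cell survival relative to non-targeting pool 2 control, plus a synergy score calculated separately for each of the three anchor drugs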
- Scale: synergy score with BYL719 and synergy score with cetuximab and synergy score with trametinib: higher = stronger synthetic lethal effect with drug; viability, siRNA alone in vehicle: higher = more cells survive knock-down
- Hit rule: 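Hit when any single drug gives a synergy score greater than 0.10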
- Meaning of the calls: active = synergy with at least one drug; inactive = no synergy with any drug

| target | siRNA no. | synergy score with BYL719 | synergy score with cetuximab | synergy score with trametinib | viability, siRNA alone in vehicle (fraction of control) |
| --- | --- | --- | --- | --- | --- |
| SYNCRIP (GeneID 10492) | 1 | -0.179 | -0.109 | -0.303 | 1 |
| SYNCRIP (GeneID 10492) | 2 | 0.226 (active) | 0.22 | 0.252 | 1 |
| SYNCRIP (GeneID 10492) | 3 | -0.191 | -0.394 | -0.216 | 0.201 |
| SYNCRIP (GeneID 10492) | 4 | -0.259 | -0.317 | -0.0196 | 0.715 |
| NLK (GeneID 51701) | 1 | -0.0331 (active) | 0.164 | -0.0226 | 0.791 |
| NLK (GeneID 51701) | 2 | -0.226 (active) | 0.387 | -0.0614 | 0.943 |
| NLK (GeneID 51701) | 3 | -0.179 | -0.109 | -0.469 | 1 |
| NLK (GeneID 51701) | 4 | 0.106 (active) | -0.0408 | 0.121 | 1 |
| GUCY2D (GeneID 3000) | 1 | -0.509 | -0.173 | -0.214 | 0.595 |
| GUCY2D (GeneID 3000) | 2 | -0.157 | -0.158 | 0.0701 | 0.454 |
| GUCY2D (GeneID 3000) | 3 | -0.0374 | -0.127 | 0.0208 | 0.269 |
| GUCY2D (GeneID 3000) | 4 | -0.27 | -0.208 | -0.0196 | 0.715 |
| CSNK2A2 (GeneID 1459) | 1 | -0.179 | -0.109 | 0.0668 | 1 |
| CSNK2A2 (GeneID 1459) | 2 | -0.244 | -0.122 | 0.014 | 0.921 |
| CSNK2A2 (GeneID 1459) | 3 | -0.174 | -0.337 | -0.109 | 0.301 |
| CSNK2A2 (GeneID 1459) | 4 | -0.195 (active) | -0.0566 | 0.102 | 0.421 |
| HSPB8 (GeneID 26353) | 1 | 0.0538 | -0.13 | -0.0661 | 0.791 |
| HSPB8 (GeneID 26353) | 2 | -0.122 | -0.0735 | -0.146 | 1 |
| HSPB8 (GeneID 26353) | 3 | -0.179 (active) | 0.101 | -0.401 | 1 |
| HSPB8 (GeneID 26353) | 4 | -0.256 | 0.00528 | -0.00567 | 0.638 |
| RPS6KA4 (GeneID 8986) | 1 | -0.17 | 0.0634 | -0.188 | 0.704 |
| RPS6KA4 (GeneID 8986) | 2 | -0.133 | -0.109 | -0.0637 | 1 |
| RPS6KA4 (GeneID 8986) | 3 | -0.133 | -0.0625 | -0.292 | 1 |
| RPS6KA4 (GeneID 8986) | 4 | 0.137 (active) | -0.034 | 0.0106 | 0.812 |
| MPP3 (GeneID 4356) | 1 | -0.157 | -0.236 | -0.0512 | 0.573 |
| MPP3 (GeneID 4356) | 2 | 0.00814 (active) | -0.109 | 0.252 | 1 |
| MPP3 (GeneID 4356) | 3 | -0.179 | -0.109 | -0.248 | 1 |
| MPP3 (GeneID 4356) | 4 | 0.024 | -0.339 | 0.0782 | 0.715 |
| COASY (GeneID 80347) | 1 | 0.222 (active) | -0.0114 | -0.319 | 0.704 |
| COASY (GeneID 80347) | 2 | -0.0993 | -0.047 | -0.0176 | 0.432 |
| COASY (GeneID 80347) | 3 | -0.202 (active) | 0.101 | 0.095 | 0.439 |
| COASY (GeneID 80347) | 4 | 0.151 (active) | -0.073 | 0.0443 | 0.671 |

The list goes on; the last 8 above are carried over.
| target | siRNA no. | synergy score with BYL719 | synergy score with cetuximab | synergy score with trametinib | viability, siRNA alone in vehicle (fraction of control) |
| --- | --- | --- | --- | --- | --- |
| MPP3 (GeneID 4356) | 1 | -0.157 | -0.236 | -0.0512 | 0.573 |
| MPP3 (GeneID 4356) | 2 | 0.00814 (active) | -0.109 | 0.252 | 1 |
| MPP3 (GeneID 4356) | 3 | -0.179 | -0.109 | -0.248 | 1 |
| MPP3 (GeneID 4356) | 4 | 0.024 | -0.339 | 0.0782 | 0.715 |
| COASY (GeneID 80347) | 1 | 0.222 (active) | -0.0114 | -0.319 | 0.704 |
| COASY (GeneID 80347) | 2 | -0.0993 | -0.047 | -0.0176 | 0.432 |
| COASY (GeneID 80347) | 3 | -0.202 (active) | 0.101 | 0.095 | 0.439 |
| COASY (GeneID 80347) | 4 | 0.151 (active) | -0.073 | 0.0443 | 0.671 |
| IRAK3 (GeneID 11213) | 1 | -0.222 | -0.0879 | -0.227 | 0.508 |
| IRAK3 (GeneID 11213) | 2 | -0.441 | -0.107 | -0.0478 | 0.682 |
| IRAK3 (GeneID 11213) | 3 | -0.306 | -0.223 | -0.139 | 0.551 |
| IRAK3 (GeneID 11213) | 4 | -0.0137 | -0.335 | -0.0695 | 0.682 |
| IRAK1 (GeneID 3654) | 1 | -0.111 | -0.109 | -0.469 | 1 |
| IRAK1 (GeneID 3654) | 2 | 0.0728 | -0.0725 | -0.0801 | 0.867 |
| IRAK1 (GeneID 3654) | 3 | 0.118 (active) | -0.107 | -0.0424 | 0.856 |
| IRAK1 (GeneID 3654) | 4 | 0.323 (active) | -0.0118 | 0.0272 | 0.496 |
| GTF2H1 (GeneID 2965) | 1 | -0.15 | -0.445 | -0.246 | 0.595 |
| GTF2H1 (GeneID 2965) | 2 | -0.136 | -0.204 | -0.0743 | 0.878 |
| GTF2H1 (GeneID 2965) | 3 | -0.342 | -0.286 | -0.126 | 0.801 |
| GTF2H1 (GeneID 2965) | 4 | 0.0299 (active) | -0.109 | 0.143 | 1 |
| BMPR2 (GeneID 659) | 1 | -0.166 | -0.0408 | -0.0745 | 1 |
| BMPR2 (GeneID 659) | 2 | 0.0625 (active) | -0.109 | 0.121 | 1 |
| BMPR2 (GeneID 659) | 3 | -0.409 | -0.227 | -0.0672 | 0.584 |
| BMPR2 (GeneID 659) | 4 | -0.145 | -0.138 | -0.134 | 0.867 |
| PINK1 (GeneID 65018) | 1 | -0.179 | -0.109 | -0.412 | 1 |
| PINK1 (GeneID 65018) | 2 | -0.23 | -0.328 | 0.0244 | 0.617 |
| PINK1 (GeneID 65018) | 3 | -0.316 (active) | -0.257 | 0.106 | 0.834 |
| PINK1 (GeneID 65018) | 4 | 0.00814 (active) | 0.00266 | 0.217 | 1 |
| AK2 (GeneID 204) | 1 | -0.189 | -0.229 | -0.075 | 0.508 |
| AK2 (GeneID 204) | 2 | -0.29 | 0.0359 | 0.0527 | 0.769 |
| AK2 (GeneID 204) | 3 | -0.111 | -0.272 | 0.062 | 0.643 |
| AK2 (GeneID 204) | 4 | -0.179 | -0.00815 | 0.0886 | 1 |
| KCNH8 (GeneID 131096) | 1 | -0.166 | -0.121 | 0.0379 | 0.986 |
| KCNH8 (GeneID 131096) | 2 | 0.128 (active) | 0.0788 | 0.0234 | 1 |
| KCNH8 (GeneID 131096) | 3 | -0.295 | 0.0829 | -0.0625 | 0.736 |
| KCNH8 (GeneID 131096) | 4 | -0.0282 | -0.264 | -0.158 | 0.823 |
